This test deals with T1, 3xFLAG-Vaspin (visceral adipose tissue-derived serine protease inhibitor, SERPINA12), expressed in HK2 cells (human) (UniProt Q8IW75).
T1 sequence: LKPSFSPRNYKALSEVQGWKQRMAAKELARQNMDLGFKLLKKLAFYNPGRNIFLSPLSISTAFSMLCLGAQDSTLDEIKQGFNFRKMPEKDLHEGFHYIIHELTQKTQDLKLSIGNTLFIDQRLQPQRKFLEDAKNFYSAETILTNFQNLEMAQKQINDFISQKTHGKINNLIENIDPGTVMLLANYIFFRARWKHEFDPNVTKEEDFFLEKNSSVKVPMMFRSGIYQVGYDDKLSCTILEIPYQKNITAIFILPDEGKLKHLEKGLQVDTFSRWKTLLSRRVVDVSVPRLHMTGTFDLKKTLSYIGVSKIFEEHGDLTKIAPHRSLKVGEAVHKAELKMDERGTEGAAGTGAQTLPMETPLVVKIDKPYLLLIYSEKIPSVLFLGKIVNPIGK
Put plainly: affinity purification with mass spectrometry; HK2 cell lysates overexpressing p3xFLAG-Vaspin or p3xFLAG, ANTI-FLAG M2 Affinity Gel; bands visible only with p3xFLAG-Vaspin excised, trypsin in-gel digest, LC-MS/MS.

Sequences of proteins named here, by UniProt entry; tags and fusion partners are left off.
UniProt P34931: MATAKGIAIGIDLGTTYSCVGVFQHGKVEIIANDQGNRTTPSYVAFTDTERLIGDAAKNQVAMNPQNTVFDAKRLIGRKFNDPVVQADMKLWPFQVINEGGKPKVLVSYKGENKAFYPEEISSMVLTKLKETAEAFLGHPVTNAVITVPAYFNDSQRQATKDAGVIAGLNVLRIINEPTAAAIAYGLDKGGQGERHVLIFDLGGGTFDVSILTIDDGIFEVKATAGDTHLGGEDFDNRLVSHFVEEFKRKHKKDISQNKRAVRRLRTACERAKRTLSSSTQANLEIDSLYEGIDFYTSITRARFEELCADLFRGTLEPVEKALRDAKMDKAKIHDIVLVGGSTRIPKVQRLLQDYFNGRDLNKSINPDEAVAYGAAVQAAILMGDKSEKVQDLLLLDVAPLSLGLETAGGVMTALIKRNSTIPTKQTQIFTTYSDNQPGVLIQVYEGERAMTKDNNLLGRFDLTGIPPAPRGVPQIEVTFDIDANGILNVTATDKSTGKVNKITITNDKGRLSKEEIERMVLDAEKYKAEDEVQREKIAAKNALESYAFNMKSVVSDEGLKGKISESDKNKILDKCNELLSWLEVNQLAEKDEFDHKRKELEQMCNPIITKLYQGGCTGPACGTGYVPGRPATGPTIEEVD

Results are given in words; binding and its absence hold for the method and conditions named. Binding seen in cells or lysates may run through a third protein. These calls come from enrichment with a bait or labelling near it, and not all partners need be listed. Tags and fused reporters may be left off the sequences shown.

For the substance “heat shock protein family A (Hsp70) member 1 like (HSPA1L), endogenous in HK2 cells (from UniProt P34931 1-641)”, the binding entry is reported as “binds”.

For the origin of these results see publication PMC7979793.
